# In all, about 390,000 compounds went through this assay and about 910 (0.23%) were called active. Inconclusive results, whose numbers are uncertain, are shown with a selection of clear calls. Calls follow the shape of the dose curve; as a rule, active = well fitted inhibition curve with a large enough effect; inconclusive = small, poorly fitted or top-dose-only effect; inactive = no such curve, though single readings can be large or run the other way. Potencies of inconclusive entries are doubtful fits and often do not repeat.
# Sequences of proteins named here, by UniProt entry; tags and fusion partners are left off. A change or cut given only in a name is not applied to a line headed by its entry.
# UniProt O94782: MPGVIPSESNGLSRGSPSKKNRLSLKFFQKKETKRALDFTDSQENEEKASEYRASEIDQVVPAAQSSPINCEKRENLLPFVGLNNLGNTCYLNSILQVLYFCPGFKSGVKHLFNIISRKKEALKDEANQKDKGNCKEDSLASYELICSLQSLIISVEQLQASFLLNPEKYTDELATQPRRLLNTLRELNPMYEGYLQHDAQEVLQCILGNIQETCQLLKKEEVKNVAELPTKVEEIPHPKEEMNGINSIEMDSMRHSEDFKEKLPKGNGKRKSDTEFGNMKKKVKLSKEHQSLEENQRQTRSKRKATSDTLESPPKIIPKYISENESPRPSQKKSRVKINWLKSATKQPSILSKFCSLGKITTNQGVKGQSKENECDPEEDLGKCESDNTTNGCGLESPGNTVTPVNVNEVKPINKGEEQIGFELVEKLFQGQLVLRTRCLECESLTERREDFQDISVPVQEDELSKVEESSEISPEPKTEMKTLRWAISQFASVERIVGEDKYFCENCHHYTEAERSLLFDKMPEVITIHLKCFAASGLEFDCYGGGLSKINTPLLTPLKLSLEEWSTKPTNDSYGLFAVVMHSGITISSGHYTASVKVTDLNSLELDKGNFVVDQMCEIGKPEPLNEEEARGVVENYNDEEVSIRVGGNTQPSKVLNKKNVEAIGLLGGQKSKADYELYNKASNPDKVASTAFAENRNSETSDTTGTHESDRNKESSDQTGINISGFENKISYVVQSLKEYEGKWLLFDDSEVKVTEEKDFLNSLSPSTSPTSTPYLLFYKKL
# Target: Ubiquitin carboxyl-terminal hydrolase 1 (Homo sapiens) (UniProt O94782)
# Assay: Inhibitors of USP1/UAF1: Primary Screen; also: nearly all actives have a fitted effect of over 60% in size
# Conditions: recombinant USP1/UAF1, Ub-Rhodamine cleavage fluorescence; activity change, negative = inhibition: at 57.1 µM (top of the series)
# Outline: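 USP1/UAF1 complex at 1 nM was preincubated with compound for 15 min at room temperature, then Ub-Rho substrate (150nM final) was added. Fluorescence (480/540 nm) was read kinetically, 6 reads every 60 seconds.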
# % is scaled to controls: 0 for no effect and ±100 for the full control effect; potency is read from the fitted curve at half-maximal effect.
Structure (SMILES),Potency,"activity change, negative = inhibition"
COc1ccc(CNC(=O)C2CSC(c3ccc(OC)cc3)N2C(C)=O)cc1 (centres undefined),"inconclusive: 5.01 µM [inhibitor, partial curve]",–
CCC(CO)Oc1cc(NCc2ccccc2)c2ncn(C(C)C)c2c1 (centres undefined),"inconclusive: 56.2 µM [inhibitor, partial curve, poor fit]",–
CCOc1ccc(N2C(=O)CS/C2=N/NC(=O)COc2ccc3ccccc3c2)cc1,"inconclusive: 22.4 µM [inhibitor, partial curve]",–
O=C(CSc1nnnn1-c1ccc2c(c1)CCC2)NCc1cccs1,"inconclusive: 39.8 µM [inhibitor, single point]",–
Cc1ccc(S(=O)(=O)N2CCCCC2C(=O)N2CCN(C)CC2)cc1 (centres undefined),–,inactive: -18.2%
C[C@@H]1CCC[C@@]2(O[C@H](CCO)C[C@@H](O)[C@@H]2O)O1,"inconclusive: 7.08 µM [inhibitor, partial curve]",–
Nc1c(-c2nc(-c3ccccc3Cl)no2)nnn1-c1ccccc1F,"inconclusive: 11.2 µM [inhibitor, partial curve]",–
O=C(CCc1nc(-c2ccccc2)no1)NCc1cccnc1,"inconclusive: 35.5 µM [inhibitor, single point]",–
CC(C)(C)c1ccc(OCCC(=O)Nc2cccc(S(=O)(=O)NC3=NCCCCC3)c2)cc1,–,inactive: -22%
CC(C)Oc1cccc(C(=O)Nc2ccc3oc(-c4ccccc4)nc3c2)c1,"inconclusive: 50.1 µM [inhibitor, partial curve, poor fit]",–
Cc1ccc([C@@H]2C[C@H]3CN(Cc4cccc(Cl)c4)C(=O)[C@]34CCCN24)o1,–,inactive: -16.7%
O=C(Cn1cc(S(=O)(=O)Cc2ccccc2Cl)c2ccccc21)Nc1cccc(C(F)(F)F)c1,"inconclusive: 56.2 µM [inhibitor, partial curve, poor fit]",–
Cc1nc2ccc(NC(=O)CCS(=O)(=O)c3ccc(Cl)cc3)cc2s1,–,inactive: 0.0907%
COc1cc(/C=C2\N=C3CCCCCN3C2=O)ccc1O,"inconclusive: 1.12 µM [inhibitor, full curve, poor fit]",–
O=C(NC(=S)Nc1cccnc1Cl)c1ccc(F)cc1,–,inactive: -10.3%
COC(=O)C(CC(=O)O)NCc1ccco1 (centres undefined),–,inactive: -8.05%
CCCCSc1nnc2c(n1)OC(c1ccc(C)s1)Nc1ccccc1-2 (centres undefined),"inconclusive: 70.8 µM [inhibitor, partial curve, poor fit]",–
CCC(=O)Nc1nnc(S(=O)(=O)N2CCCCCC2)s1,"inconclusive: 50.1 µM [inhibitor, partial curve, poor fit]",–
CCOc1cc(-c2nnc(SCC(=O)NCCCOC)nc2-c2ccc(OC)c(OCC)c2)ccc1OC,"inconclusive: 15.8 µM [inhibitor, partial curve]",–

# Shown tab-delimited: 3 of the compounds above
Structure (SMILES)	Potency	activity change, negative = inhibition
O=C(CCc1nc(-c2ccccc2)no1)NCc1cccnc1	inconclusive: 35.5 µM [inhibitor, single point]	–
CC(C)(C)c1ccc(OCCC(=O)Nc2cccc(S(=O)(=O)NC3=NCCCCC3)c2)cc1	–	inactive: -22%
CC(C)Oc1cccc(C(=O)Nc2ccc3oc(-c4ccccc4)nc3c2)c1	inconclusive: 50.1 µM [inhibitor, partial curve, poor fit]	–

# — PubChem BioAssay AID743255 (National Center for Advancing Translational Sciences (NCATS), 2014)
